Measurements published in doi:10.1101/2023.05.24.542039.
No constants are given. Whether binding was seen depends on the method and setting. In cells and extracts the contact can be indirect. Some results given as binding are weak or reduced against the parent protein; the word gives no strength.

Amino acid sequences for entries named in this document (tags omitted).
UniProt O00482: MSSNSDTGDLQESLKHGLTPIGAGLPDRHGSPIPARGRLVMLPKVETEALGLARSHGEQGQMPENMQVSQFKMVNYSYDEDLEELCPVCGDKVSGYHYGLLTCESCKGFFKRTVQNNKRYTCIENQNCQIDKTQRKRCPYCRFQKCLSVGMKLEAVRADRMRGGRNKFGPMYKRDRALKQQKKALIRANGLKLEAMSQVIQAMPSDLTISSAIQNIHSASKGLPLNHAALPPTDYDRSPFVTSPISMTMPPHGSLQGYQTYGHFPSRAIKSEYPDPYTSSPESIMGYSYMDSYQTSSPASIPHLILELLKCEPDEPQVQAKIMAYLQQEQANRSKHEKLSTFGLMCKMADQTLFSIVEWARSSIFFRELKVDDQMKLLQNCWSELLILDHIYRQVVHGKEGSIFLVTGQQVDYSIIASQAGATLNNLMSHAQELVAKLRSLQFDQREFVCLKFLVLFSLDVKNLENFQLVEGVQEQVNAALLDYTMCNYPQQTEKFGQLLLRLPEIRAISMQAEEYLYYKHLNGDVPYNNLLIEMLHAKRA
UniProt Q04206: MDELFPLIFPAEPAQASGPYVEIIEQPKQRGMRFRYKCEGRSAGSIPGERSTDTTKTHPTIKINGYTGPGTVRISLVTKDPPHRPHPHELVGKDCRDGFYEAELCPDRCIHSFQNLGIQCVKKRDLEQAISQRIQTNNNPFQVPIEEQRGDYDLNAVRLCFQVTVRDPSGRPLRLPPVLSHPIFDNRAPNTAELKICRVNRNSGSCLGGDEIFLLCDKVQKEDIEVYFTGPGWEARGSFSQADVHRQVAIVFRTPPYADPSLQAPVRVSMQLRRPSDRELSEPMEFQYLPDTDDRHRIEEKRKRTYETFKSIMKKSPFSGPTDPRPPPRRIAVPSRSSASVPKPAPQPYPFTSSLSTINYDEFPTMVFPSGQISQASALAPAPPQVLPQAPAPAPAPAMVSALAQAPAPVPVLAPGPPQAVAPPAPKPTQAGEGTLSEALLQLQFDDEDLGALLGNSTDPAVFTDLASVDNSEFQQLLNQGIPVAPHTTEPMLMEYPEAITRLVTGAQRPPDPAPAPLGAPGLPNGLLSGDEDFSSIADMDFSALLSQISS

Target: human Flag-tagged LRH-1 (Liver Receptor Homolog-1, NR5A2) (human) (UniProt O00482)
Experiment: co-IP

“NF-kB subunit RelA (from UniProt Q04206 1-551)” was tested, and the binding was “binds”.
